These are yes or no findings as the source states them, for the method shown. In cells and extracts the contact can be indirect. Some binding calls cover weakened binding; strength is not graded here. Where a sequence is shown, tags or fusion partners need not be part of it.
Experiments:
GST-fused HYL1 = molecular target: T1, GST-fused HYL1 (UniProt O04492); assay: co-immunoprecipitation with GST-fused HYL1
T1 sequence (looked up): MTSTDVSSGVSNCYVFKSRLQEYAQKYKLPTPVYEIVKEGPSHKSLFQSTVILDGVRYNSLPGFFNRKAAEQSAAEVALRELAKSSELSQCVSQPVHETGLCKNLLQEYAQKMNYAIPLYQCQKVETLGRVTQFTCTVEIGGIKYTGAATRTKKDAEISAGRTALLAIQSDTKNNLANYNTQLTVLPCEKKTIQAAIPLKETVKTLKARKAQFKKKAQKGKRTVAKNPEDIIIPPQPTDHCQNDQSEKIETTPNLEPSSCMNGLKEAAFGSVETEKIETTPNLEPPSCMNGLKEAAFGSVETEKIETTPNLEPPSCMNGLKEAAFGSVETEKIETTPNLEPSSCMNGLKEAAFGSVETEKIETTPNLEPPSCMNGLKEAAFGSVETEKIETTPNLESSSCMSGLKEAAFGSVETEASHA

[1] = molecular target: T2, HYL1-6Myc (from hyl1-2/35S-HYL1-6Myc transgenic plant) (UniProt O04492); assay: co-immunoprecipitation from hyl1-2/35S-HYL1-6Myc plants with anti-MYC antibody
T2 sequence (looked up): T1 sequence (looked up)

serrate (SE), endogenous = molecular target: T3, serrate (SE), endogenous (UniProt Q9ZVD0); assay: co-immunoprecipitation from WT/35S-HIGLE-6Myc plants with anti-Myc antibody, SE detected with anti-SE antibody
T3 sequence (looked up): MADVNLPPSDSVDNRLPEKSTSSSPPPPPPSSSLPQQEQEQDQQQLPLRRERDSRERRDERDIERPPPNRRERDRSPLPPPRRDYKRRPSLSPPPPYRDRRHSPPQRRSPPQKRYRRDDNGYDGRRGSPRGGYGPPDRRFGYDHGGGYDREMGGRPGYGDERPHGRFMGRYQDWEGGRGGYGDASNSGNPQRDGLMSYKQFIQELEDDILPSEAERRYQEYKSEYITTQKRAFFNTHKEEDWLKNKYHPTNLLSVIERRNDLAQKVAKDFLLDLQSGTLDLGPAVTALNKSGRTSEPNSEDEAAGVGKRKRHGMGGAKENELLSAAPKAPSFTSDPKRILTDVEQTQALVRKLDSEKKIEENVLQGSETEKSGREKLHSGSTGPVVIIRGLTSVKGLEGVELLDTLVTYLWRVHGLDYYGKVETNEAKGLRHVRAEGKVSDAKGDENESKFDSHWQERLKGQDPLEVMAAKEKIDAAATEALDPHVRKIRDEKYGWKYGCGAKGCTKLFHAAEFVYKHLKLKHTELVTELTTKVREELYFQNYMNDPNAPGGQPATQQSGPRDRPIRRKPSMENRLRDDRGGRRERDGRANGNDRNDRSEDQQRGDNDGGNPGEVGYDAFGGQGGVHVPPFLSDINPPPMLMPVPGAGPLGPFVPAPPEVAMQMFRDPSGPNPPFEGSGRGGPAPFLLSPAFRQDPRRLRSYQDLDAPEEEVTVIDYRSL

B1: HIGLE (HYL1 interacting GIY-YIG-like endonuclease), untagged or construct not stated (enzyme)
chain: MREKRGNRKALDPVGEDGVTGKDGKGFFACYLLTSLSPRHKGQTYIGFTVNPRRRIRQHNGEITSGAWRTKKKRPWEMVLCIYGFPTNVSALQFEWAWQHPRESVAVREAAAAFKSFSGVASKIKLVYTMLNLPAWNSLNLTVNYFSSKYAHHGGKSPSLPLHMKVQVCAMEDLQYFTKVDDSSQPEDEESPEVNEEDDDDDDDDSSNLSQPGNSNTSSSDDRHFEKAKEPVTVFDEEDRLANFSGFGLLDEEETVEDEVSHITVGSIRATEKEPETVFNDRLASFTCFGLVEIVEDEVSHGTIGSTEAMEKECRKRRNHITSTTTEVDVEVIDLMTPSPSCRAGSSMKRRRVSEFIDLTMSPNFIES
binding (GST-fused HYL1): binds | binding [1]: binds

B2: HIGLE-6Myc (from WT/35S-HIGLE-6Myc transgenic plant) (enzyme, not shown: small tags and cut ends)
chain: B1 chain
binding (serrate (SE), endogenous): binds

From patent US20170283857A1
